Source: article PMC4140012
No constants are given. Whether binding was seen depends on the method and setting. In cells and extracts the contact can be indirect. These calls come from enrichment with a bait or labelling near it, and not all partners need be listed.

Protein sequences, listed by entry. Tags and fused reporters are not part of them. Lines headed by an entry give the natural chain unless they say otherwise; changes in a name come on top.
UniProt Q8IQ27: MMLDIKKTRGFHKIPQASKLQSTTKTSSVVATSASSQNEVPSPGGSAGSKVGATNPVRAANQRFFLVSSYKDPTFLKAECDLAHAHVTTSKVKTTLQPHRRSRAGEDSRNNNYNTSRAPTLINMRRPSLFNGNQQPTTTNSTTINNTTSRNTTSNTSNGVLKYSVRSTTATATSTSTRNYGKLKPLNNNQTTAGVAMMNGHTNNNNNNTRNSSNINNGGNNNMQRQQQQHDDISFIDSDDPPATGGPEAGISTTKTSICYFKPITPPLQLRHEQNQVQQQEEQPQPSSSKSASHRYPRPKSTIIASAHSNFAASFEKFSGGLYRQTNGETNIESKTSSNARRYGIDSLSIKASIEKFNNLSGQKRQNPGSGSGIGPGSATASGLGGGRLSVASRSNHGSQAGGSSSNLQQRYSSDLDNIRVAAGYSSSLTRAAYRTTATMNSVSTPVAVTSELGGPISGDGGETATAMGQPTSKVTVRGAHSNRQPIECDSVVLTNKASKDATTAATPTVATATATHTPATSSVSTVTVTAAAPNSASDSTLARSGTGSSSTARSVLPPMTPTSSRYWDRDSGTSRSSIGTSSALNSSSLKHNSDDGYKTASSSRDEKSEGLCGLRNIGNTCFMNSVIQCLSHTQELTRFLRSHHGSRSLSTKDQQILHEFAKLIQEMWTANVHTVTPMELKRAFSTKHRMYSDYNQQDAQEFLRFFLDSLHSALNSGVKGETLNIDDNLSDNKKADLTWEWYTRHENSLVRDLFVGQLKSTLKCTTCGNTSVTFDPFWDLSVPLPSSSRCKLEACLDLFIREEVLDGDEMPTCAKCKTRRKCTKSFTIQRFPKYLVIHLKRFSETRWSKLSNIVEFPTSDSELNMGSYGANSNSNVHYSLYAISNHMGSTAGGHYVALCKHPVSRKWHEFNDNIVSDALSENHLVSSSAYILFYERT
UniProt O18413: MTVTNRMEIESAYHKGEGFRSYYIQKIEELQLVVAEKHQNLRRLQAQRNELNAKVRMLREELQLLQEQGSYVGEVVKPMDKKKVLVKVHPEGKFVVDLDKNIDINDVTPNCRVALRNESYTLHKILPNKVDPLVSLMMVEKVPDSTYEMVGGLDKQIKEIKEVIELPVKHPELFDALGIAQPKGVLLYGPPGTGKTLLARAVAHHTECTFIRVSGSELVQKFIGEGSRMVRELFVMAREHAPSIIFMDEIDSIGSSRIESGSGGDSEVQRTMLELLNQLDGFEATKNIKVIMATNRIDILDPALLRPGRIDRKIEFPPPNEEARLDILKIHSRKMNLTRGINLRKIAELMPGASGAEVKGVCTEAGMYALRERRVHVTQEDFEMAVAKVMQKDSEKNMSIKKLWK

Molecular target: GST-tagged full length USP2 (Drosophila) (UniProt Q8IQ27)
Assay: affinity purification with mass spectrometry; GST or GST-USP2 as baits with S2 cell lysate; eluates analysed by nano-LC-MS/MS; only the target purified

binding: binds
Substance: proteasomal subunit 8 (Pros45) (from UniProt O18413 1-405)
